Measured values reported in the supplement of paper PMC10849652.
The list shows a part of the results. Residues, ends and D or L forms follow the SMILES beside them. *: point of attachment. Cbz = O=C(OCc1ccccc1)*

Amino acid sequences for entries named in this document (tags omitted). A change or cut given only in a name is not applied to a line headed by its entry.
UniProt Q96RV3: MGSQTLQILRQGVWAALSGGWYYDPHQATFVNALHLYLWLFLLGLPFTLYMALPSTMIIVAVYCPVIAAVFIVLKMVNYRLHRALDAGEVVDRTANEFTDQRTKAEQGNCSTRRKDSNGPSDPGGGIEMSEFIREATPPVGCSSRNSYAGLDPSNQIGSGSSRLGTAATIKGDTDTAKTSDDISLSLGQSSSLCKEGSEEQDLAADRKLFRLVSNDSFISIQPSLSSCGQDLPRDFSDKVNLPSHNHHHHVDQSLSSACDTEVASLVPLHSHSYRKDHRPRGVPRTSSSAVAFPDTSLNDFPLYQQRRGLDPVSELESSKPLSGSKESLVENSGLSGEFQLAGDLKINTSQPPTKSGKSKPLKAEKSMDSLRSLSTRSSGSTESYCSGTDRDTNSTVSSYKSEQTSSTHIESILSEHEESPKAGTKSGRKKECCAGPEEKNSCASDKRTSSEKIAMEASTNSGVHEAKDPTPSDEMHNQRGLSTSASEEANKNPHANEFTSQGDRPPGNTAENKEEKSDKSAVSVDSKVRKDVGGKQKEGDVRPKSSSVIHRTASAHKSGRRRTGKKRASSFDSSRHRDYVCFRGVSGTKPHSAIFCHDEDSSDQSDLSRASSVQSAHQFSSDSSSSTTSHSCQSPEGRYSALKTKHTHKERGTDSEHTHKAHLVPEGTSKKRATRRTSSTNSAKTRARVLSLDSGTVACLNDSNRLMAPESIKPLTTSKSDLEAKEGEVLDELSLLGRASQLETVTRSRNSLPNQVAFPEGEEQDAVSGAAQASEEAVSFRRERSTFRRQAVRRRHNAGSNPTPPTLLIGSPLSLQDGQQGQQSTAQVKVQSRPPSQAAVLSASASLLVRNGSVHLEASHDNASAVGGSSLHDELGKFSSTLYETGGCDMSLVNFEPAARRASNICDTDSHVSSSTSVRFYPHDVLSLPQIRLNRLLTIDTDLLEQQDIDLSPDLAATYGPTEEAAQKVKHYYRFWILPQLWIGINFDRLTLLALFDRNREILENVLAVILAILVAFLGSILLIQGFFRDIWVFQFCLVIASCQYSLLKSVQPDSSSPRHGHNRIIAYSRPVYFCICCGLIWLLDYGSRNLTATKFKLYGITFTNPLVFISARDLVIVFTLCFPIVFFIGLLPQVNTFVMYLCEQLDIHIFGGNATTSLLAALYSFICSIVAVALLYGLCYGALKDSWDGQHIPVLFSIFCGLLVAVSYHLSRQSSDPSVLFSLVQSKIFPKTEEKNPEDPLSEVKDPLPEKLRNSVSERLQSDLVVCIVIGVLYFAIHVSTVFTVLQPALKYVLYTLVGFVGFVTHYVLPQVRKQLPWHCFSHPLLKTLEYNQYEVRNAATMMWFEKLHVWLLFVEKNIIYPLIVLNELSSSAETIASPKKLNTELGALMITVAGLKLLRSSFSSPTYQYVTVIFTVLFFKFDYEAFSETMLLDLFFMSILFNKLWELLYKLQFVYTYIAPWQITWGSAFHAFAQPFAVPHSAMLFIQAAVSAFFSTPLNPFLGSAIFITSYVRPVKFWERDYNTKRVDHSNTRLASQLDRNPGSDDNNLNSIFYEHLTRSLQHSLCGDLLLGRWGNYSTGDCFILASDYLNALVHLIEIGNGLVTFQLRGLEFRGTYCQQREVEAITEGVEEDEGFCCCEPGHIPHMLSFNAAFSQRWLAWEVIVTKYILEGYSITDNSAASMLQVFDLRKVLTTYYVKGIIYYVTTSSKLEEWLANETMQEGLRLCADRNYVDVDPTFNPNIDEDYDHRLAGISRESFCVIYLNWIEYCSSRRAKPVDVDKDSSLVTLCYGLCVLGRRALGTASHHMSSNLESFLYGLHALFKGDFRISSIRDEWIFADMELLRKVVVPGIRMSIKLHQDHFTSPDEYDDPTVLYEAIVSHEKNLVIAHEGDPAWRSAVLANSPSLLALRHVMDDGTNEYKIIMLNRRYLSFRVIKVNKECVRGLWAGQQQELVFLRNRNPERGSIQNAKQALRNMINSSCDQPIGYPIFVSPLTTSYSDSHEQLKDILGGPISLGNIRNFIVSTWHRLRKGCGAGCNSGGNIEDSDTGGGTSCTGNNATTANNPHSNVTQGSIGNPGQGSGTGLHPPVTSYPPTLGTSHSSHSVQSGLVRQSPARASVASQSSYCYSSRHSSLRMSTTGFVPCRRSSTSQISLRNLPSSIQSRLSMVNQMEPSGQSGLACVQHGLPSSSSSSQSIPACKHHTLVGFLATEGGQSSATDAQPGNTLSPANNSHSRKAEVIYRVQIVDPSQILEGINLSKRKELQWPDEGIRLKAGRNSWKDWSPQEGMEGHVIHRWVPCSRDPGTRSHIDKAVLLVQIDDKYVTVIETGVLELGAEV
UniProt Q9H999: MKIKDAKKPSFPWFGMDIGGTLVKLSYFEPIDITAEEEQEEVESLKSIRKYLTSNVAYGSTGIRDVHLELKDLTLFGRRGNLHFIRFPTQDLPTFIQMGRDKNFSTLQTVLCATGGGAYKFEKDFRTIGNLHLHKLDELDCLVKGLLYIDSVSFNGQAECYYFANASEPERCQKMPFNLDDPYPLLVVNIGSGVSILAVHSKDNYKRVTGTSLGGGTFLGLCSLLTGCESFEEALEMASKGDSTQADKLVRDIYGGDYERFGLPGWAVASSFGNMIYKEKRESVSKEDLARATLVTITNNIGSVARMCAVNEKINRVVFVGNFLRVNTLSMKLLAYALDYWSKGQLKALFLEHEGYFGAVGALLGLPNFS
UniProt O60829: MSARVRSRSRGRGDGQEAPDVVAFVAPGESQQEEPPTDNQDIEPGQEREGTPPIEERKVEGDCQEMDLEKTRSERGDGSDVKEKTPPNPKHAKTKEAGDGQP
UniProt Q13370: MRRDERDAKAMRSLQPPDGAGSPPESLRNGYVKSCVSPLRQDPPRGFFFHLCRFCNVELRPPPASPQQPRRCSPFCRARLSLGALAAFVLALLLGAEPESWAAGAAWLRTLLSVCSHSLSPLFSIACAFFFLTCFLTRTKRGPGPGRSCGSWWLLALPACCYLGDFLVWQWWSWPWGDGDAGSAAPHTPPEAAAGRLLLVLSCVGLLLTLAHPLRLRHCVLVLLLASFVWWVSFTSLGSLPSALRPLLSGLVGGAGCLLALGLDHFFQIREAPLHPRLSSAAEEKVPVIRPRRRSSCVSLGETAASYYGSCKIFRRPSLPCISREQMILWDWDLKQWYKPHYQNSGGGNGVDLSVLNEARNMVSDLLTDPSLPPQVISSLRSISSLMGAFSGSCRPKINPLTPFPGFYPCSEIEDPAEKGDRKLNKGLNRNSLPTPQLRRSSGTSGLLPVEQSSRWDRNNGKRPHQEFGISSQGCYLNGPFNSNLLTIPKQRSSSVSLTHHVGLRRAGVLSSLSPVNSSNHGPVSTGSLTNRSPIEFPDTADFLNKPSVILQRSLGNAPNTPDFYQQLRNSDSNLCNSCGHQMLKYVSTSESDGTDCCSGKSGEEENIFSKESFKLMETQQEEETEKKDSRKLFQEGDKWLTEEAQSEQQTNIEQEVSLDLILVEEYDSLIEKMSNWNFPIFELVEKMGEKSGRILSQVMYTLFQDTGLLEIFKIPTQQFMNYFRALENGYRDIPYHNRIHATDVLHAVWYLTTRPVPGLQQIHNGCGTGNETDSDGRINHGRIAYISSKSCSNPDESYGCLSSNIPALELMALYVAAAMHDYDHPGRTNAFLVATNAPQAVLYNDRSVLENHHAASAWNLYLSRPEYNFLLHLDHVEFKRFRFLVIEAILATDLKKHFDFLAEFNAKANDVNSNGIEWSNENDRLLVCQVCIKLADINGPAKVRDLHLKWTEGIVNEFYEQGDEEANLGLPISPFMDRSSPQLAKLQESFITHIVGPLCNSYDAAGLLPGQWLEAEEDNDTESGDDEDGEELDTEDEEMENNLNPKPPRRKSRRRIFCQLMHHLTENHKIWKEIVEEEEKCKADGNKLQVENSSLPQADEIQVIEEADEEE
UniProt Q8TE04: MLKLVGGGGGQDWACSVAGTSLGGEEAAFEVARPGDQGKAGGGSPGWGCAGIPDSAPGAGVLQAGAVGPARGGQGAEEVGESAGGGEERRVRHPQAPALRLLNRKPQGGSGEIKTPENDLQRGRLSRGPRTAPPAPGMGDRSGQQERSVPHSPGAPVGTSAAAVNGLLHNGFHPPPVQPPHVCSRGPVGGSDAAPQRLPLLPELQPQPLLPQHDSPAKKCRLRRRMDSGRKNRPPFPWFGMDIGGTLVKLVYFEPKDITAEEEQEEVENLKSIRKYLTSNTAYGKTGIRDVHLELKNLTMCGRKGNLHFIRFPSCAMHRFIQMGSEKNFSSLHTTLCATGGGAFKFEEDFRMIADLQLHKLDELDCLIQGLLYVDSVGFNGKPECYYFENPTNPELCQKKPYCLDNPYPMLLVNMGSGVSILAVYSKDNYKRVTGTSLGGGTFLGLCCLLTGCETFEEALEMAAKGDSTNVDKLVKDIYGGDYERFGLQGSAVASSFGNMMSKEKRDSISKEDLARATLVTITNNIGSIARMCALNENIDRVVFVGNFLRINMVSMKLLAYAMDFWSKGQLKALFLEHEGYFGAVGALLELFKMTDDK
UniProt Q9UBM1: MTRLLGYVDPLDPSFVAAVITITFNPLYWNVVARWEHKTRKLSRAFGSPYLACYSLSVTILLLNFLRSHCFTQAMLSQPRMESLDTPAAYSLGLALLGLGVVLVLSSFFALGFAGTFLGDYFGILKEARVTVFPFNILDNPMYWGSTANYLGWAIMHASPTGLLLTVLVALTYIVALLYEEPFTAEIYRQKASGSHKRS
UniProt Q9Y5B6: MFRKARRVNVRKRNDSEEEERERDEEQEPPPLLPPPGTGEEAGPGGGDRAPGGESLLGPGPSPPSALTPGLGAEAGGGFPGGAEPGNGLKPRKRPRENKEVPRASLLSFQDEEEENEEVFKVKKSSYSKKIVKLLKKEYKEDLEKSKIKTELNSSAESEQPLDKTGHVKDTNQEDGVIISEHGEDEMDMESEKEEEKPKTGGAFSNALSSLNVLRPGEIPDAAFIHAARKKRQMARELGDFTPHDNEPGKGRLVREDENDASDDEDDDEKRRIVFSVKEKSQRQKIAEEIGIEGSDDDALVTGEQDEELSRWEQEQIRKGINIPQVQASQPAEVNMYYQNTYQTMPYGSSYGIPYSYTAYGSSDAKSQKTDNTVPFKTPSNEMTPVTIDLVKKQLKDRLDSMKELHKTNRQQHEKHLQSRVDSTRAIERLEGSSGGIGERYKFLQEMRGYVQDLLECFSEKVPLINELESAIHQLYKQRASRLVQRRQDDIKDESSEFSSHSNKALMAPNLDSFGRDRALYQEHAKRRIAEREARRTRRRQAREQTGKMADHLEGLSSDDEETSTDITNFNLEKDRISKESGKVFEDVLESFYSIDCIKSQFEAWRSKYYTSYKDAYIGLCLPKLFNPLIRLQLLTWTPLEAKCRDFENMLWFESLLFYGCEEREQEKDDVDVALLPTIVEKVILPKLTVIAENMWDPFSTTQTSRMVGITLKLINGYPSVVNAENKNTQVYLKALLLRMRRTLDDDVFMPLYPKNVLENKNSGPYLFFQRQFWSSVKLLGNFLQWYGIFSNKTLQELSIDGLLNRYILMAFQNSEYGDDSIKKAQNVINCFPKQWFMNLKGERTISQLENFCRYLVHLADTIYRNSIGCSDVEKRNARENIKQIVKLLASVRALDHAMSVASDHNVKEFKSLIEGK
UniProt Q58A45: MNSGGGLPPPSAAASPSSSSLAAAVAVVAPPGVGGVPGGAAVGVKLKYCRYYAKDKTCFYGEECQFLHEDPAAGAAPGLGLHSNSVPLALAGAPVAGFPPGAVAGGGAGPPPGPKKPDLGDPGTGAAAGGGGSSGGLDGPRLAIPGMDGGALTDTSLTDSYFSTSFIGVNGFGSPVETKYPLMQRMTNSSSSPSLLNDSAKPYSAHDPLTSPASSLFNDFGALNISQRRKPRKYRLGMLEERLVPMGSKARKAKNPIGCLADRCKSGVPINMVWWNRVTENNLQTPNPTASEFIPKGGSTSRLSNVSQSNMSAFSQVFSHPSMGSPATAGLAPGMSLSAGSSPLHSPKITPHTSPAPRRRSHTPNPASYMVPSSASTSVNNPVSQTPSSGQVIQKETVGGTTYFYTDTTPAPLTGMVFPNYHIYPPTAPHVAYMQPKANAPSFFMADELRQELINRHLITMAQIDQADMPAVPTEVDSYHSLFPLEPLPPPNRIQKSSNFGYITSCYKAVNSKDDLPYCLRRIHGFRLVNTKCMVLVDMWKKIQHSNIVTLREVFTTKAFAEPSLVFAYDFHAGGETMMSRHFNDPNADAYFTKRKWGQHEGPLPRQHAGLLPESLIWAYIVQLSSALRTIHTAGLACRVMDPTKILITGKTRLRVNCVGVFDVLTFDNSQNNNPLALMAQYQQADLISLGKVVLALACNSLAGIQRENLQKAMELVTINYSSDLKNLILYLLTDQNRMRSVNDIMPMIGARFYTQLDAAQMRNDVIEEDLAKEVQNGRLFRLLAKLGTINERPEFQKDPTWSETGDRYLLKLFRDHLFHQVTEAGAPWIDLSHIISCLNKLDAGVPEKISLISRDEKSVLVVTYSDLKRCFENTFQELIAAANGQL

These targets were tested with CC(C)(O)CC(=O)NCCn1ccc2ncnc(Nc3ccc(Oc4cccc(C(F)(F)F)c4)c(Cl)c3)c21 (assay: log2 fold change, soluble protein after heating vs DMSO (PISA); higher = thermal stabilisation; K562 cells, 10 uM, 30 min; active = over 0.2 and 3.5 SD of the protein, either way, in both replicates (recomputed)).
Outline: (§1)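 Aliquots of K562 cells (2×10^6 cells/mL) treated with 10 μM compound for 30 min were heated for 3 min over 48°C-58°C. After pooling and extraction in PBS with 0.5% NP-40 at 4°C, soluble protein from a 21,000xg, 90 min spin was quantified by TMTpro 16plex LC-MS/MS with channel sums equalised. Thermal stability is expressed against control samples, from duplicates, as a log2 fold change.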

log2 fold change, inactive:
PDCD2 (UniProt Q16342) 0.076
PCNX1 (UniProt Q96RV3) 0.005
PANK3 (UniProt Q9H999) -0.012
PACSIN3 (UniProt Q9UKS6) 0.163
PAGE4 (UniProt O60829) -0.043
PDXP (UniProt B1AHD3) -0.219
PDE3B (UniProt Q13370) -0.048
PAF1 (UniProt Q8N7H5) -0.068
PANK1 (UniProt Q8TE04) -0.021

Each target was assayed with CC(C)C1=C2N=C(C=C(N2N=C1)NCC3=CC=CC=C3)NCCCCCCN in the same assay as above.
Outline: as §1

log2 fold change, inactive:
PCBP2 (UniProt F8VZX2) -0.127
PANK3 (UniProt Q9H999) -0.013
PACSIN3 (UniProt Q9UKS6) 0.116
PEMT isoform 2 (UniProt Q9UBM1) -0.22
PAGE4 (UniProt O60829) 0.129
PCSK7 (UniProt Q16549) 0.036
PCNX3 (UniProt Q9H6A9) -0.044
PDE4DIP (UniProt E9PS60) 0.171
PAXBP1 (UniProt Q9Y5B6) -0.039
PANK1 (UniProt Q8TE04) -0.064
PALM (UniProt O75781) 0.038

Each target was assayed with CC(C)C[C@@H](C=O)NC(=O)[C@H](CC(C)C)NC(=O)[C@H](CC(C)C)NC(=O)OCc1ccccc1 in the same assay as above.
Outline: as §1

log2 fold change, inactive:
PAICS (UniProt D6RF62) 0.331
PDIA4, A0A499FI48 0.03
PCBP2 (UniProt F8VZX2) 0.138
PANK3 (UniProt Q9H999) 0.084
PACSIN3 (UniProt Q9UKS6) 0.117
PAGE4 (UniProt O60829) -0.014
PAN3 (UniProt Q58A45) 0.087
PCMTD2 (UniProt Q9NV79) 0.09
PAF1 (UniProt Q8N7H5) 0.217
PAXBP1 (UniProt Q9Y5B6) 0.06
PANK1 (UniProt Q8TE04) -0.033

Each target was assayed with CC(C)N(C[C@H]1O[C@@H](n2cnc3c(N)ncnc32)[C@H](O)[C@@H]1O)[C@H]1C[C@@H](CCc2nc3cc(C(C)(C)C)ccc3[nH]2)C1 [pinometostat] in the same assay as above.
Outline: as §1

log2 fold change, inactive:
PDCD2 (UniProt Q16342) 0.303
PDIA4, A0A499FI48 0.033
PCBP2 (UniProt F8VZX2) 0.136
PACSIN3 (UniProt Q9UKS6) 0.169
PDP1 isoform 2 (UniProt Q9P0J1) -0.197
PDE3B (UniProt Q13370) 0.168
PDE4DIP (UniProt E9PS60) 0.178
PAXBP1 (UniProt Q9Y5B6) 0.048
PALM (UniProt O75781) -0.036
